PubChem BioAssay AID540275 (National Center for Advancing Translational Sciences (NCATS), 2011)
The whole screen tested about 320,000 compounds, of which about 620 (0.19%) were called active. Inconclusive means that the source gave no clear call. Such entries were picked first, then a sample of the others. Rule as the data show it: active = activation above about 80%; inconclusive = between about 30% and that limit; inactive = weaker than that.

The chains behind the UniProt entries cited, without tags or fusion partners.
UniProt Q8NER1, whole entry, looked up: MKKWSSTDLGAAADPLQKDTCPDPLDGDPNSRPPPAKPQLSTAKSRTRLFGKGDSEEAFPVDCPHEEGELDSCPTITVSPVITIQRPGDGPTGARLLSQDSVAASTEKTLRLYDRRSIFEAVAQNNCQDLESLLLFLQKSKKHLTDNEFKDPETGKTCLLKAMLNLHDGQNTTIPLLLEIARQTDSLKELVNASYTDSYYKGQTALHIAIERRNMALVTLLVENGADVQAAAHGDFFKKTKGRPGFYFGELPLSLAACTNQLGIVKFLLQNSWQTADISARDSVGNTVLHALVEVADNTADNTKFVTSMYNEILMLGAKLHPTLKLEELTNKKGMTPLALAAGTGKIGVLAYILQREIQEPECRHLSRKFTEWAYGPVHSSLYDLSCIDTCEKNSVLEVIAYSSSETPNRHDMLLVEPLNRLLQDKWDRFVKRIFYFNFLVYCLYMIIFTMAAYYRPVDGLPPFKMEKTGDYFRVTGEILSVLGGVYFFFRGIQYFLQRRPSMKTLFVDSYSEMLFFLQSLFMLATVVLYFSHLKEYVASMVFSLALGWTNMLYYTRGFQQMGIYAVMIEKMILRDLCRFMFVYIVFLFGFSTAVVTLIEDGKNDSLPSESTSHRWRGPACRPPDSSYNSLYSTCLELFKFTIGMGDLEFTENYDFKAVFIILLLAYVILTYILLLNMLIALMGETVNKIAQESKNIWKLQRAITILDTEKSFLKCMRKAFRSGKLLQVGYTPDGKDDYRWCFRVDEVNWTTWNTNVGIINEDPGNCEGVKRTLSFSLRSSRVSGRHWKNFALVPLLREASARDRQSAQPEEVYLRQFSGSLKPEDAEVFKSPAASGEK

biological target: Transient receptor potential cation channel subfamily V member 1 (Homo sapiens) (UniProt Q8NER1); experiment: HTS Assay for Compounds that Act as Agonists of the Vanilloid Receptor 1; conditions: TRPV1-expressing cells, Fluo-8 calcium influx, agonist mode; at 8.33 µM, active compounds read high; also: 0% is about no effect
Outline: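 Cells expressing TRPV1 were dye-loaded with Fluo-8 and read kinetically: 10 s baseline, 3 min after compound (agonist portion), then 2 min after EC20 capsaicin (allosteric enhancer portion). Calcium-bound dye fluorescence at 480/520 nm.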

Compound	activation
O=C1C(Cl)=C(N2CCOCC2)C(=O)N1c1cccc(Cl)c1	inconclusive: 38.5%
Cc1ccc(S(=O)(=O)Oc2ccccc2/C=N/O)cc1	inactive: -2.47%
O=C1CC(c2ccco2)CC2=C1C(c1cccnc1)n1nc(C(F)(F)F)nc1N2 (stereo not drawn)	inactive: 7.75%
O=C(CN1CCC(NC(=O)Cc2ccccc2)CC1)Nc1cccc2ccccc12	inconclusive: 32.6%
COc1ccc(NC(=O)CN(C)C(=O)CCCc2nc3ccccc3s2)cc1	inconclusive: 30.2%
COc1cc(NC2c3ccccc3C(=O)N2Cc2ccc3c(c2)OCO3)cc(OC)c1 (stereo not drawn)	inconclusive: 57.3%
CCCCCCCC(=O)NC(Nc1ccc(S(N)(=O)=O)cc1)C(Cl)(Cl)Cl (stereo not drawn)	inconclusive: 47.6%
Cc1cc(S(=O)(=O)N2CCN(c3ccccc3F)CC2)ccc1-n1cnnn1	inconclusive: 47.8%
CC(C)OC(=O)c1cccc2c1C(=O)c1ccccc1-2	inconclusive: 32.6%
Cc1cccc(N(CC(=O)NC2CCCCC2)C(=O)c2ccc(C)s2)c1	inconclusive: 38.5%
N#Cc1ccc(CN2CCN(C(=O)c3cccc(S(=O)(=O)N4CCCCCC4)c3)CC2)cc1	inconclusive: 30.9%
Cn1c(=O)[nH]c(=O)c2c1nc(Br)n2Cc1ccccc1Cl	inactive: -1.02%
O=C(CN(Cc1ccccc1)S(=O)(=O)c1ccc(Cl)cc1)NCC1CCCO1 (stereo not drawn)	inconclusive: 35%
CCCc1ccc(OCCNC(C)=O)cc1	inconclusive: 68.4%
COc1ccc2nc(NC(=O)c3ccc(Br)s3)sc2c1	active: 97.1%
Cc1ccc(C)c(OCC(=O)N/N=C\c2cccn2C)c1	inconclusive: 37.3%
O=C(/C=C/c1ccco1)NC(=S)Nc1ccccn1	inactive: 0.253%
O=C(CSc1nnnn1-c1ccccc1Cl)Nc1ccc2c(c1)OCCO2	inconclusive: 35.5%
O=C(Nc1cccc(F)c1)c1ccc(S(=O)(=O)N2CCCCC2)cc1	inconclusive: 55.6%
CCc1ccccc1N(C)S(=O)(=O)c1ccc(-c2cc(C)no2)s1	inconclusive: 44.3%

Part of the list above, as comma-separated lines:
Compound,activation
O=C1C(Cl)=C(N2CCOCC2)C(=O)N1c1cccc(Cl)c1,inconclusive: 38.5%
Cc1ccc(S(=O)(=O)Oc2ccccc2/C=N/O)cc1,inactive: -2.47%
O=C1CC(c2ccco2)CC2=C1C(c1cccnc1)n1nc(C(F)(F)F)nc1N2 (stereo not drawn),inactive: 7.75%
O=C(CN1CCC(NC(=O)Cc2ccccc2)CC1)Nc1cccc2ccccc12,inconclusive: 32.6%

Going on with the list:

Compound	activation
C1CCC(c2nn3c(-c4n[nH]c5c4CCC5)nnc3s2)CC1	inconclusive: 32.8%
O=C(CSCc1ccccc1)Nc1ccc(F)c(F)c1	inconclusive: 41.3%
c1ccc(Cc2nnc(N3CCCCC3)c3ccccc23)cc1	inconclusive: 68.4%
Nc1nc(SCc2nc3sc4c(c3c(=O)[nH]2)CCCC4)n[nH]1	inconclusive: 34.7%
CC(=O)c1c(C)oc2c1cc(O)c1ccccc12	inconclusive: 31.2%
O=C(N/N=C\c1cc(Br)c(Br)o1)c1cncc(Br)c1	inactive: 7.02%
Cc1ccc(C(=O)O/N=C(\N)c2ccccn2)c(C)c1	inconclusive: 32.8%
COC(=O)CCCC1=CC2=C(c3ccccc3)C(=O)C(C)(OC(=O)C3CCCC3)C(=O)C2=CN1CC1CC1 (stereo not drawn)	inconclusive: 35.7%
O=C(c1cc(COc2ccc(F)cc2F)on1)N1CC2C[C@@H]3CC1C[C@H](C2)C3	inconclusive: 35.5%
Cc1ccc(C(=O)Oc2ccc(Br)cc2C(=S)N2CCOCC2)cc1	inactive: 14.1%
Cn1cccc1CNC(=S)Nc1ccccc1F	inactive: 5.58%
COc1ccc(CN(C)S(=O)(=O)c2ccc3c(c2)OCCO3)cc1	inconclusive: 43%
O=C(c1cc(C2CC2)on1)N1CCN(c2ccc(F)cc2)CC1	inconclusive: 54.3%
COc1ccc(C/C(C)=N/NC(=S)Nc2ccccc2)cc1	inactive: -1.76%
Cc1ccc(C(C)C)c(OCC(=O)N2CCOCC2)c1	inconclusive: 54.7%
CCOc1cc(N2CCOCC2)c(OCC)cc1NC(=O)c1ccc(OC)cc1	inactive: -1.63%
CCCN(CCC)C(=O)CC(c1ccccc1)c1cc(Br)ccc1O (stereo not drawn)	inconclusive: 34%
COc1ccc(NS(=O)(=O)c2ccc(N3CCCC3)c(N)c2)cc1	inactive: -0.303%
Cc1ccc(NS(=O)(=O)c2ccc3c(c2)NC(=O)CO3)cc1Cl	inconclusive: 50.8%
CCN(/N=C/c1ccc(N(C)C)cc1)c1nc2ccccc2[nH]1	inconclusive: 50.9%

Compound	activation
CCOC(=O)c1c(CC(C)C)csc1NC(=O)C(C)C	inconclusive: 39.8%
CN(Cc1ccccc1)C(=O)CN1C(=O)NC2(CCCC2)C1=O	inactive: -0.855%
Cc1nc2c(C)cccc2cc1C(=O)N/N=C/c1ccc(O)cc1	inconclusive: 44.6%
COc1ccc(/C=C(/NC(=O)/C=C/c2ccccc2)C(=O)O)cc1	inactive: -5.42%
O=C(NC12CC3CC(CC(C3)C1)C2)c1cc([N+](=O)[O-])ccc1N1CCOCC1	inconclusive: 47.3%
CN(CCOc1ccccc1)CC(=O)Nc1ccc(Br)cc1F	inconclusive: 40.5%
CC(=O)N1CCN(c2c(F)c(F)c(C(F)(F)F)c(F)c2F)CC1	inconclusive: 63.8%
CCOC(=O)C(=O)c1c(-c2ccc(C)cc2)nc2ccccn12	inconclusive: 31.1%
COc1ccc(CCC(C)N2CCC(CO)(Cc3ccccc3)CC2)cc1 (stereo not drawn)	inactive: -3.05%
Cc1nc(N2CCCCC2)sc1C(=O)c1ccc(SCCO)c([N+](=O)[O-])c1	inactive: 10.6%
CC1CCCCC1NC(=S)NC(=O)c1cccs1 (stereo not drawn)	inconclusive: 40.3%
N#CC(NC(=O)OCc1ccccc1)c1ccccc1 (stereo not drawn)	inconclusive: 35%
CCOc1cc(C(=S)N2CCOCC2)ccc1OC(=O)c1cccc(C)c1	inconclusive: 34.3%
CC(NC(=O)c1cc(-c2cccs2)on1)c1ccccc1 (stereo not drawn)	inconclusive: 34.1%
CCOC(=O)C1(CC2CCCCO2)CCN(C(=O)Nc2cccc(SC)c2)CC1 (stereo not drawn)	inconclusive: 46.6%
CCO[C@H]1OC(C(=O)N2CCCCCCC2)=C[C@@H](C2CCCCC2)[C@@H]1CCCO	inconclusive: 53.6%
CCOC(=O)c1ccc(NC(=O)c2nc[nH]c2C(=O)N[C@@H](C)C(=O)OC(C)(C)C)cc1	inactive: 4.71%
CC(C)NC(=O)/C(C#N)=C\c1ccc(N(C)C)c(Br)c1	inconclusive: 49%
